Results are given in words; binding and its absence hold for the method and conditions named. In cells and extracts the contact can be indirect. A yes stands for co-enrichment or nearness to the bait. Other partners may have been found.
Molecular target: Myc-tagged recombinant FAM167A (UniProt Q96KS9)
Experiment: affinity purification with mass spectrometry; Myc-tagged recombinant FAM167A and anti-Myc antibodies bound to Protein G Sepharose beads used to pull down the receptor from K562R cells; silver staining; bands identified by LC-MS/MS; only the target purified

Sequences of proteins named here, by UniProt entry; tags and fusion partners are left off. Residues count along the entry.
UniProt Q96KS9: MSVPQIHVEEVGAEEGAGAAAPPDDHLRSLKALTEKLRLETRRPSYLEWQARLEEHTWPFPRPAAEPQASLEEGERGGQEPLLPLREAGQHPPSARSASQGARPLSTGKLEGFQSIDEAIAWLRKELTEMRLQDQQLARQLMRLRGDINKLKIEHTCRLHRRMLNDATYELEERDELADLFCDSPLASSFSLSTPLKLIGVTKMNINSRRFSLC
UniProt Q02413, residues 50-1049: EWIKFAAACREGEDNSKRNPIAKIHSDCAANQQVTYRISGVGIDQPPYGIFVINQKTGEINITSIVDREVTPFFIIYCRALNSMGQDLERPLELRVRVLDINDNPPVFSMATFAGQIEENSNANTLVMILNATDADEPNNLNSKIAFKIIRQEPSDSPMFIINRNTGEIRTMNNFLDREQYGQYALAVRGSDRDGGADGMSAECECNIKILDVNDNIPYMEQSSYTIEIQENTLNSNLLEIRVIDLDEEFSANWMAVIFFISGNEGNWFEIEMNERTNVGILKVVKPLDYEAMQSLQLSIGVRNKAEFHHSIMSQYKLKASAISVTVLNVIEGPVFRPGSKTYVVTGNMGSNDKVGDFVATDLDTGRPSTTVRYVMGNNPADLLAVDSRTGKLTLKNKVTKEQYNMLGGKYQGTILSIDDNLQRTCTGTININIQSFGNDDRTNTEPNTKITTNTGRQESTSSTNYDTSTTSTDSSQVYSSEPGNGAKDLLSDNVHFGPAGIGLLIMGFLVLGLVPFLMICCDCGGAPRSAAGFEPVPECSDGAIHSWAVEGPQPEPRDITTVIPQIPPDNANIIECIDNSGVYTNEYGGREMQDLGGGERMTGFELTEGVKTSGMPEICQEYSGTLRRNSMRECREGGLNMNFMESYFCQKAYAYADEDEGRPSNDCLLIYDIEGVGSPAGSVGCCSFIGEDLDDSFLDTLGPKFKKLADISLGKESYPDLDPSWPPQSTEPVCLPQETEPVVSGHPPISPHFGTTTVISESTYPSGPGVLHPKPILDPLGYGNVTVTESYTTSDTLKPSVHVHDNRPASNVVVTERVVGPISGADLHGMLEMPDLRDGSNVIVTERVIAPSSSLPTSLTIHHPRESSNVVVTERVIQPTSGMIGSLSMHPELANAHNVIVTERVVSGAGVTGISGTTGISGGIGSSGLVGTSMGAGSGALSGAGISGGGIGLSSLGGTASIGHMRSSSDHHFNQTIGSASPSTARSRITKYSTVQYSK

desmoglein-1 (DSG1) (from UniProt Q02413 50-1049) (receptor)
binding: binds

Reference: paper PMC8892744
